Consider two compounds from ChEMBL document CHEMBL4184340, “Fragment-Based Discovery of a Potent, Orally Bioavailable Inhibitor That Modulates the Phosphorylation and Catalytic Activity of ERK1/2” (J Med Chem, 2018).

A short description of data set [1]: in vivo. To be noted: Balb/c, mouse, iv, 0.5 mg/kg.
Data set [2] can be described thus: in vivo. Particulars: Balb/c, mouse, iv, 0.5 mg/kg. This is another data set of the same source.
Data set [3] can be described thus: in vivo. To be noted: Balb/c, mouse, po, 5 mg/kg.
Data set [4] is described as follows: in vivo. Particulars: Balb/c, mouse, po, 5 mg/kg. This is another data set of the same source.
A short description of data set [5]: in vivo. To be noted: Balb/c, mouse, po, 5 mg/kg. This is another data set of the same source.
Another data set in a line: in vitro. Particulars: human, Caco-2.

As a reminder, the clearance is a measure of how efficiently the substance is removed, as volume per time. As a reminder, the Vd is a proportionality between amount in the body and measured concentration, not a real space. Read a low Vd as little distribution into tissue. A word on the AUC: it is the area under the concentration-time curve, a measure of exposure. Higher therefore signals high exposure. What is called half-life is how long it takes for the measured level to halve. A low value points to rapid decline. Usually bioavailability stands for the share of a dose that reaches the circulation, judged against a reference dose that is usually intravenous. One may read the Papp as a coefficient for how fast a substance crosses the barrier. The low end stands for poor permeation, the high end for ready permeation. Turning to `COc1cccc([C@@H](CO)NC(=O)CN2Cc3ccc(-c4nc(NC5CCOCC5)ncc4Cl)cc3C2=O)c1`, the clearance at 24 h in “in vivo [1]” was 40 mL/min/kg. Also, the Vd at 24 h in the data set “in vivo [2]” was 1 L/kg. For the same compound, the AUC at 24 h in the data set “in vivo [3]” was 350 ng·h/mL. This compound showed a half-life at 24 h in the data set “in vivo [4]” of 3 h. In addition, the bioavailability at 24 h in “in vivo [5]” is 20%. In the data set “in vitro”, this compound displayed an apparent permeability (Papp) at 1 h, 10 µM of 2.2 ×10⁻⁶ cm/s.
For `COc1cccc([C@@H](C)NC(=O)CN2Cc3ccc(-c4nc(NC5CCOCC5)ncc4Cl)cc3C2=O)c1`, the clearance at 24 h in “in vivo [1]” stood at 6 mL/min/kg. The volume of distribution (Vd) at 24 h in the data set “in vivo [2]” amounted to 0.08 L/kg. Moreover, the AUC at 24 h in the data set “in vivo [3]” amounted to 1100 ng·h/mL. The compound further had a half-life at 24 h in the data set “in vivo [4]” of 2 h. In addition, in the data set “in vivo [5]”, the bioavailability at 24 h was determined as 8%. The compound also had an apparent permeability (Papp) at 1 h, 10 µM in the data set “in vitro” of 15 ×10⁻⁶ cm/s.
